Measured values taken from article PMC12636044, “Membrane binding of a cyanobacterial ESCRT‐III protein crucially involves the helix α1‐3 hairpin conserved in all superfamily members” (Protein Science : A Publication of the Protein Society, 2025).
These are yes or no findings as the source states them, for the method shown. Some results given as binding are weak or reduced against the parent protein; the word gives no strength.

Columns and labels:
[1] = biological target: IM30 α1-3 (Synechocystis) (UniProt Q55707); assay: native MS; 10 μM protein in 200 mM ammonium acetate, Q-ToF Ultima; self-association; both purified
[2] = biological target: IM30 α1-3 (Synechocystis) (UniProt Q55707); assay: cross-linking; BS3 (285 μM), 5.7 μM protein in solution without liposomes, 25°C, SDS-PAGE; self-association; both purified

binding [1]: binds weakly
binding [2]: binds weakly
B1: IM30 α1-3 (domain or fragment, Synechocystis, UniProt Q55707 26-156, looked up)
chain: EKVLEQAVIDMQEDLVQLRQAVARTIAEEKRTEQRLNQDTQEAKKWEDRAKLALTNGEENLAREALARKKSLTDTAAAYQTQLAQQRTMSENLRRNLAALEAKISEAKTKKNMLQARAKAAKANAELQQTL
notes: IM30 (Vipp1) of Synechocystis, helical hairpin α1-3, residues 26-156 (printed for the α1-3 fragment in the simulation); calculated mass about 17.5 kDa; also called IM30 αH1-3; α1-3 helical hairpin; not shown: His10, N-terminal, kept
